Results deposited as PubChem BioAssay AID1671195 (Yale University, 2021).

Assay: 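Knockdowns that increase or decrease uptake of fluorescent LDL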 (primary screen)
Cell system: human Huh7 hepatoma cells
Reagents: siRNA pool against human genes, 18 nM
Duration: about 2 to 2.5 days of knockdown, then 8 h LDL uptake
Conditions: DiI-labelled LDL at 30 µg/ml for 8 h, in lipoprotein-deficient serum medium
Detection: 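Per-cell DiI-LDL intensity by automated imaging; well means scaled to the plate median and given as a robust z-score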
Reading the numbers: robust z-score: higher = more LDL uptake after knockdown
Active means: 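Active when two or more replicates show a robust z-score above 2 or below -2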
Here is an unselected part of about 22,000 reagents. In the full data, about 1,510 (6.9%) were called active. 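Active includes knockdowns raising or lowering LDL uptake; positive z-scores mean more uptake, negative mean less.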

The first 3 records, ahead of the listing:
DNAJB5 (DnaJ heat shock protein family (Hsp40) member B5) [SID442897599]
- robust z-score, replicate 1: -0.351
- robust z-score, replicate 2: -0.225
- robust z-score, replicate 3: -0.633
- activity call: inactive

ANKRD39 (ankyrin repeat domain 39) [SID442887839]
- robust z-score, replicate 1: -1.03
- robust z-score, replicate 2: 1.59
- robust z-score, replicate 3: 1.93
- activity call: inactive

EDC3 (enhancer of mRNA decapping 3) [SID442887428]
- robust z-score, replicate 1: 0.649
- robust z-score, replicate 2: 1.58
- robust z-score, replicate 3: 0.52
- activity call: inactive

Results, from the first entry:
DNAJB5 (DnaJ heat shock protein family (Hsp40) member B5) [SID442897599]
- robust z-score, replicate 1: -0.351
- robust z-score, replicate 2: -0.225
- robust z-score, replicate 3: -0.633
- activity call: inactive

ANKRD39 (ankyrin repeat domain 39) [SID442887839]
- robust z-score, replicate 1: -1.03
- robust z-score, replicate 2: 1.59
- robust z-score, replicate 3: 1.93
- activity call: inactive

EDC3 (enhancer of mRNA decapping 3) [SID442887428]
- robust z-score, replicate 1: 0.649
- robust z-score, replicate 2: 1.58
- robust z-score, replicate 3: 0.52
- activity call: inactive

EHBP1L1 (EH domain binding protein 1 like 1) [SID442890592]
- robust z-score, replicate 1: 0.379
- robust z-score, replicate 2: 0.254
- robust z-score, replicate 3: 0.551
- activity call: inactive

TMEM184A (transmembrane protein 184A) [SID442901245]
- robust z-score, replicate 1: -0.55
- robust z-score, replicate 2: -1.03
- robust z-score, replicate 3: -1.03
- activity call: inactive

SEMA4B (semaphorin 4B) [SID442898810]
- robust z-score, replicate 1: -0.812
- robust z-score, replicate 2: -0.274
- robust z-score, replicate 3: -0.536
- activity call: inactive

CORIN (corin, serine peptidase) [SID442887433]
- robust z-score, replicate 1: 0.712
- robust z-score, replicate 2: 0.953
- robust z-score, replicate 3: 1.08
- activity call: inactive

MARVELD1 (MARVEL domain containing 1) [SID442897932]
- robust z-score, replicate 1: -0.418
- robust z-score, replicate 2: -0.465
- robust z-score, replicate 3: -0.439
- activity call: inactive

NPY (neuropeptide Y) [SID442893015]
- robust z-score, replicate 1: -0.379
- robust z-score, replicate 2: 0.579
- robust z-score, replicate 3: 0.0901
- activity call: inactive

BHLHE40 (basic helix-loop-helix family member e40) [SID442896669]
- robust z-score, replicate 1: -0.368
- robust z-score, replicate 2: -0.197
- robust z-score, replicate 3: -0.332
- activity call: inactive

CCDC197 (coiled-coil domain containing 197) [SID442885400]
- robust z-score, replicate 1: 1.44
- robust z-score, replicate 2: 1.65
- robust z-score, replicate 3: 1.48
- activity call: inactive

MAPK8 (mitogen-activated protein kinase 8) [SID442893136]
- robust z-score, replicate 1: 0.0623
- robust z-score, replicate 2: -0.0174
- robust z-score, replicate 3: 0.209
- activity call: inactive

KLF16 (KLF transcription factor 16) [SID442904599]
- robust z-score, replicate 1: -1.57
- robust z-score, replicate 2: -1.88
- robust z-score, replicate 3: -1.77
- activity call: inactive

YPEL4 (yippee like 4) [SID442894618]
- robust z-score, replicate 1: -0.0353
- robust z-score, replicate 2: 0.0738
- robust z-score, replicate 3: -0.287
- activity call: inactive

CYP27C1 (cytochrome P450 family 27 subfamily C member 1) [SID442883958]
- robust z-score, replicate 1: 2.05
- robust z-score, replicate 2: 1.79
- robust z-score, replicate 3: 2.52
- activity call: active

RPS4Y1 (ribosomal protein S4 Y-linked 1) [SID442884664]
- robust z-score, replicate 1: 1.19
- robust z-score, replicate 2: 1.74
- robust z-score, replicate 3: 3.16
- activity call: inactive

C1QL1 (complement C1q like 1) [SID442889056]
- robust z-score, replicate 1: 0.666
- robust z-score, replicate 2: 0.983
- robust z-score, replicate 3: 0.209
- activity call: inactive

TEX36 (testis expressed 36) [SID442893826]
- robust z-score, replicate 1: -0.17
- robust z-score, replicate 2: -0.123
- robust z-score, replicate 3: 0.313
- activity call: inactive

OR10A5 (olfactory receptor family 10 subfamily A member 5) [SID442903906]
- robust z-score, replicate 1: -1.82
- robust z-score, replicate 2: -0.878
- robust z-score, replicate 3: -1.58
- activity call: inactive

PHLPP2 (PH domain and leucine rich repeat protein phosphatase 2) [SID442885236]
- robust z-score, replicate 1: 0.828
- robust z-score, replicate 2: 3.54
- robust z-score, replicate 3: 0.461
- activity call: inactive

ARHGDIG (Rho GDP dissociation inhibitor gamma) [SID442901159]
- robust z-score, replicate 1: -1.23
- robust z-score, replicate 2: -0.337
- robust z-score, replicate 3: -1.01
- activity call: inactive

RAB39A (RAB39A, member RAS oncogene family) [SID442896566]
- robust z-score, replicate 1: 0.733
- robust z-score, replicate 2: -0.782
- robust z-score, replicate 3: -0.814
- activity call: inactive

ME2 (malic enzyme 2) [SID442885220]
- robust z-score, replicate 1: 1.51
- robust z-score, replicate 2: 2
- robust z-score, replicate 3: 1.34
- activity call: inactive

LOC440360 (retired record) [SID442897408]
- robust z-score, replicate 1: -0.316
- robust z-score, replicate 2: -0.311
- robust z-score, replicate 3: -0.52
- activity call: inactive
